Results from PubChem BioAssay AID540276 (National Center for Advancing Translational Sciences (NCATS), 2011).
Several values for one entry are separate records, joined by “and”; a condition that tells them apart may be missing. Equal values may be shown once. Hit rate of the full screen: of about 300,000 compounds, about 5,400 (1.8%) were called active. Inconclusive results, whose numbers are uncertain, are shown with a selection of clear calls. Calls come from the whole dose curve; tested in HEK293 cells. Where the call is inconclusive, the potency comes from a doubtful curve fit.

Assay: qHTS for inhibitors of binding or entry into cells for Marburg Virus
Settings: Marburg virus pseudotyped entry inhibition, cell reporter; activity change, negative = inhibition: at 37.8 µM (top of the series) unless noted
% is set by controls: 0 for no effect and ±100 for the full control effect; potency is the fitted concentration of half-maximal effect.

Structure (SMILES) | Potency | activity change, negative = inhibition
CCOc1ccc(CCNC(=O)c2ccc(Cl)c(S(=O)(=O)N3CCOCC3)c2)cc1OCC | inconclusive: 11.2 µM [inhibitor, partial curve] | 
O=C1NC2C(=CC(O)C(O)C2O)c2cc3c(cc21)OCO3 (stereo not given) | inconclusive: 0.794 µM [inhibitor, full curve, poor fit] | 
CCOc1ccc(NC(=O)c2ccc3c(c2)CCN3S(=O)(=O)c2ccc(Cl)cc2)cc1 | inconclusive: 35.5 µM [inhibitor, single point] | 
COC1C(O)C(C)OC(OC2CCC3(C)C(CCC4C3C(O)CC3(C)C(C5=CC(=O)OC5)CCC43O)C2)C1O (stereo not given) | inconclusive: 0.0891 µM [inhibitor, full curve, poor fit] | 
COc1cc(OC)c(NC(=O)C(=O)CC(=O)c2ccc(C)cc2C)cc1Cl | inconclusive: 25.9 µM [inhibitor, partial curve] | 
O=C(NCc1ccc(F)cc1)c1ccc2nc(N3CCCCC3)sc2c1 | inconclusive: 2.82 µM [activator, full curve, poor fit] | 
CC(=O)NC(=O)c1ccc(-c2ccc(Cl)cc2)o1 | inconclusive: 11.6 µM [activator, single point] | 
CN(Cc1ccccc1)CC(O)COc1ccc(CNCc2ccc(Cl)s2)cc1 (stereo not given) | active: 2.51 µM | 
CCc1cc(=O)oc2cc(C)cc(OCC(=O)N3CCC(C(=O)NC(C)C)(c4ccccc4)CC3)c12 | inconclusive: 8.91 µM [inhibitor, partial curve, poor fit] | 
CC1(C)N=C(N)N=C(N)N1CCCCc1ccccc1 | inconclusive: 4.47 µM [inhibitor, full curve, poor fit] | 
COc1cnc(-c2ccccc2)nc1Sc1ccccc1 | inconclusive: 8.91 µM [inhibitor, partial curve, poor fit] | 
Cc1cc(NC(=O)CSc2nc(=O)cc(N)n2-c2ccc(Cl)cc2)no1 |  | inactive: -1.19% [at 46.1 µM]
Cc1ccccc1C(=O)N1CCC(C(=O)Nc2ccc(S(=O)(=O)N3CCCC3)cc2)CC1 | inactive | 
Cc1ccc(NC(=O)CN(C)C(=O)c2ccccc2Sc2ccccc2C#N)cc1 | inconclusive: 12.6 µM [inhibitor, single point] | 
COc1ccc(C2CC(=O)c3c(ccc4ccccc34)N2)cc1OC (stereo not given) | inconclusive: 3.16 µM [inhibitor, single point] | 
COc1ccc(C(=O)Nc2nc3c(s2)CCCC3)cc1Cl | inconclusive: 1.26 µM [activator, partial curve, poor fit] | 
CCOc1cccc(NC(=O)CSc2ncc(-c3ccccc3)[nH]2)c1 |  | inactive: 12.4% [at 46.1 µM]
Nc1cc(=O)[nH]c(N)n1 | inconclusive: 7.08 µM [inhibitor, partial curve] | 
Oc1ccc(C2N=C(c3ccccc3)NC(c3ccccc3)=N2)cc1 |  | inactive: -15%
COc1cc(CCC(=O)Nc2ccc(Br)c(C(F)(F)F)c2)cc(OC)c1OC | inconclusive: 35.5 µM [inhibitor, partial curve, poor fit] | 
O=C(O)/C(=C\c1cccc(C(F)(F)F)c1)c1ccc(S(=O)(=O)N2CCCC2)s1 | inconclusive: 12.6 µM [activator, partial curve, poor fit] | 
CC(=O)C(Sc1nn(C)c(=S)s1)C(=O)Nc1ccccc1 (stereo not given) | inconclusive: 29.1 µM [activator, single point] | 

Structure (SMILES) | Potency | activity change, negative = inhibition
COc1ccc(-c2cn[nH]c2C)cc1 |  | inactive: 0% [at 14.2 µM]
N[C@@H](Cc1c[nH]c2ccccc12)C(=O)O | inconclusive: 1.26 µM [inhibitor, full curve] and inconclusive: 32.6 µM [activator, single point] | 
COc1cccc(C(=O)OCCN(C)C(C)(C)C)c1 |  | inactive: -1.66%
CCNC(=O)CCn1nc(-c2ccc(C)cc2)c2ccccc2c1=O | inconclusive: 4.47 µM [inhibitor, single point] | 
O=C(CCCSc1ccccc1)Nc1nc(-c2ccco2)c(-c2ccco2)s1 | inconclusive: 8.91 µM [inhibitor, partial curve, poor fit] | 
CCN(CC)CCCNC(=O)C1CCN(C(=O)c2cc3sccc3n2Cc2ccc(F)cc2)CC1 | inconclusive: 29.1 µM [inhibitor, single point] | 
CCCCCSc1ncnc2c1sc1nc(N3CCOCC3)c3c(c12)CCCC3 |  | inactive: 20.7% [at 46.1 µM]
CCN(CC(=O)Nc1ccc2c(c1)OCCO2)C(=O)c1ccc(CS(C)(=O)=O)cc1 |  | inactive: 20.6% [at 46.1 µM]
CSc1nc2nc3c(cc2c(=O)n1-c1cccc(C)c1)COC(C)(C)C3 | inconclusive: 6.31 µM [inhibitor, single point] | 
Cc1ccc2c3c1C1(C(=O)N3C(C)(C)CC2C)C(C#N)=C(N)Oc2cc(O)ccc21 (stereo not given) | inconclusive: 29.1 µM [inhibitor, single point] | 
O=C(C1CCC1)N1CCc2cc(S(=O)(=O)N3CCN(c4ccccn4)CC3)ccc21 | inconclusive: 10 µM [inhibitor, partial curve, poor fit] | 
COc1ccc(-c2nn(C)c(=O)c3ccccc23)cc1NS(C)(=O)=O | inconclusive: 35.5 µM [inhibitor, single point] | 
C1CCN(CCCNC2C3CC4CC(C3)CC2C4)C1 (stereo not given) | inconclusive: 8.91 µM [inhibitor, partial curve, poor fit] | 
O=C(Cc1cccs1)N=Nc1c(O)[nH]c2ccc(Br)cc12 |  | inactive: -7.83% [at 46.1 µM]
CCOc1ccc(CC(=O)Nc2sc(Cc3ccccc3)c(C)c2C(N)=O)cc1OCC |  | inactive: -5.99%
CCOc1ccc(C2CC(=O)NC3=C2C(=O)CCC3)cc1 (stereo not given) | inconclusive: 7.94 µM [activator, partial curve] | 
Cc1ccc(Cn2c(NCCCn3ccnc3)nc3c2c(=O)n(C)c(=O)n3C)cc1 | inconclusive: 0.562 µM [inhibitor, full curve] | 
O=C(Cn1ncc2c3ccccc3n(Cc3ccccc3)c2c1=O)N1CCN(c2ncccn2)CC1 | inconclusive: 8.2 µM [inhibitor, partial curve, poor fit] | 
COc1ccc(-c2nnc(-c3ccc(OCC(C)C)cc3)o2)cc1 |  | inactive: -21.4%
COc1ccc(OC)c(/C=C2/Sc3ccccc3C2=O)c1 |  | inactive: -23.3% [at 46.1 µM]
CCCCOc1ccc(Br)cc1CSC(=N)N | inconclusive: 3.98 µM [inhibitor, partial curve, poor fit] | 
COc1ccc2[nH]cc(C(=O)CN(C)CCc3ccc(OC)c(OC)c3)c2c1 | inconclusive: 35.5 µM [inhibitor, single point] | 

Structure (SMILES) | Potency | activity change, negative = inhibition
COC(=O)Nc1cccn(Cc2c(Cl)cccc2Cl)c1=O | inconclusive: 1.16 µM [activator, partial curve, poor fit] | 
O=C(Nc1ccncc1)C1CCN(S(=O)(=O)c2cccs2)CC1 |  | inactive: -9.85% [at 46.1 µM]
O=C(Nc1cccc(C(F)(F)F)c1)c1cc(-c2ccc(F)cc2)on1 | inconclusive: 10 µM [inhibitor, partial curve, poor fit] | 
COc1ccc2occ(C(=O)c3ccc(N=C(C)N(C)C)cc3)c2c1 | inconclusive: 1.26 µM [activator, single point] | 
O=C(NC(=S)Nc1nc2ccc(F)cc2s1)c1ccco1 | inconclusive: 6.31 µM [activator, partial curve, poor fit] | 
CCOC(=O)c1nnc(-c2ccccc2)nc1Sc1ccccc1Cl | inconclusive: 8.91 µM [inhibitor, single point] | 
Cc1ccccc1NC(=S)NNC(=O)c1ccncc1 |  | inactive: 1.66% [at 46.1 µM]
CCOc1ccc(N2CC(c3nc4ccccc4n3Cc3ccccc3F)CC2=O)cc1 (stereo not given) | inconclusive: 25.1 µM [inhibitor, single point] | 
CN(C)CCCn1c(N)c(C#N)c2nc(C#N)c(C#N)nc21 | inconclusive: 35.5 µM [inhibitor, single point] | 
CCCc1cc(=O)[nH]c(SCC(=O)c2cc(C)n(-c3c(C)n(C)n(-c4ccccc4)c3=O)c2C)n1 |  | inactive: -1.72% [at 46.1 µM]
COc1cc(/C=N\NC(=O)c2ccc(-c3ccccc3)cc2)ccc1OCC(N)=O | inconclusive: 35.5 µM [inhibitor, single point] | 
Cn1c(CC(=O)Nc2ccc(Cl)cc2)nnc1SCC(=O)N1CCOCC1 | inconclusive: 0.316 µM [inhibitor, single point] | 
Cc1cc(Br)c(NC(=O)CCl)c(Br)c1 | inconclusive: 2.82 µM [inhibitor, partial curve, poor fit] | 
CSc1nc(-c2ccccc2)nc(N2CCOCC2)c1C(C)=O | inconclusive: 4.47 µM [inhibitor, full curve] | 
Cc1ccc(N2C(=O)/C(=C/N3CCN(C(=O)c4ccco4)CC3)C(=O)NC2=S)cc1C |  | inactive: 2.72%
Cc1ccc(C)c(NC(=O)CCC(=O)N/N=C/c2ccc[nH]2)c1 | inconclusive: 16.4 µM [inhibitor, single point] | 
CC(OC(=O)c1ccc2ncsc2c1)C(=O)Nc1ncc(Cl)cc1Cl (stereo not given) | inconclusive: 1.26 µM [activator, single point] | 
CCC(O)c1cc2c(cc1NC(=O)c1cccs1)OCCO2 (stereo not given) | inconclusive: 6.31 µM [activator, single point] | 
Cc1cccc(Nc2nc(N)nc(CSC(=S)N3CCOCC3)n2)c1 | inconclusive: 2.82 µM [inhibitor, full curve, poor fit] | 
Cc1ccc(-c2cn(-c3cccc(Cl)c3)c(S(=O)(=O)CC(=O)Nc3cccc(C)c3)n2)cc1 | inconclusive: 25.1 µM [inhibitor, single point] | 
CC1=NN2C(=N)/C(=C\c3ccc(SCc4ccccc4)o3)C(=O)N=C2S1 | inconclusive: 0.82 µM [activator, full curve, poor fit] | 

A few values from above:
Value for CN(C)CCCn1c(N)c(C#N)c2nc(C#N)c(C#N)nc21 under Potency: inconclusive: 35.5 µM [inhibitor, single point]
Value for Cc1ccc(C)c(NC(=O)CCC(=O)N/N=C/c2ccc[nH]2)c1 under Potency: inconclusive: 16.4 µM [inhibitor, single point]
Value for Cc1cccc(Nc2nc(N)nc(CSC(=S)N3CCOCC3)n2)c1 under Potency: inconclusive: 2.82 µM [inhibitor, full curve, poor fit]
